Laboratory results from US5883102A, “Pharmaceutically active compounds” (Astra Pharmaceuticals Limited, priority 1995, dated 1999).
Structures can show the parent of a compound that is named as a salt. Some results were stated once for a whole list of compounds, not compound by compound.

Target: T1, human form of induced nitric oxide synthase (Homo sapiens, UniProt P35228)
T1 construct: Nitric oxide synthase is produced by cells in response to interferon; endogenous in cells; host or cells: DLD1 human colon adenocarcinoma cell line (European Collection of Animal Cell Culture, cell line number 90102540), induced with IL-1beta and IFN-gamma; crude lysate
Test: activity against the human form of induced nitric oxide synthase, lysate of induced human colon adenocarcinoma cell line DLD1
Format: biochemical
Details: IL-1β and IFN-γ induced, preincubated 1 hour at 37° C., then 1 hour at 37° C., read-out: IC50 (concentration of drug substance which gives 50% enzyme inhibition in the assay)

SMILES	IC50 [µM]
NC1=NC2(CCN(C(=O)C(F)(F)F)CC2)Nc2cccc(F)c21 [Example 156, 5'-Fluoro-1-(trifluoroacetyl)spiro[piperidine-4,2'(1'H)-quinazoline]-4'-amine hydrochloride]	< 25
CSCCOC(=O)N1CCC2(CC1)N=C(N)c1c(F)cccc1N2 [Example 212, 2-(Methylthio)ethyl 4'-amino-5'-fluorospiro[piperidine-4,2'(1'H)-quinazoline]-1-carboxylate hydrochloride]	< 25
CCCOC(=O)N1CCC2(CC1)N=C(N)c1c(F)cccc1N2 [Example 189, Propyl 4'-amino-5'-fluorospiro[piperidine-4,2'(1'H)-quinazoline]-1-carboxylate hydrochloride]	< 25
NC1=NC2(CCN(C(=O)c3cc(Br)cs3)CC2)Nc2cccc(F)c21 [Example 126, 1-(4-Bromo-2-thienylcarbonyl)-5'-fluorospiro[piperidine-4,2'(1'H)-quinazoline]-4'-amine hydrochloride]	< 25
N#CCCOC(=O)N1CCC2(CC1)N=C(N)c1c(F)cccc1N2 [Example 211, 2-Cyanoethyl 4'-amino-5'-fluorospiro[piperidine-4,2'(1'H)-quinazoline]-1-carboxylate hydrochloride]	< 25
C#CCCCOC(=O)N1CCC2(CC1)N=C(N)c1c(F)cccc1N2 [Example 203, Pent-4-yn-1-yl 4'-amino-5'-fluorospiro[piperidine-4,2'(1'H)-quinazoline]-1carboxylate hydochloride]	< 25
COc1ccc(C2N=C(N)c3c(F)cccc3N2)cc1 (stereo not shown) [Example 38, 5-Fluoro-1,2-dihydro-2-(4-methoxyphenyl)-4-quinazolinamine hydrochloride]	< 25
NC1=NC2(CCN(C(=O)OCCSc3ccccc3)CC2)Nc2cccc(F)c21 [Example 221, 2-(Phenylthio)ethyl 4'-amino-5'-fluorospiro[piperidine-4,2'(1'H)-quinazoline]-1-carboxylate hydrochloride]	< 25
NC1=NC2(CCN(C(=O)c3cccnn3)CC2)Nc2ccccc21 [Example 72, 1-(3-Pyridazinylcarbonyl)spiro[piperidine-4,2'(1'H)-quinazoline]-4'-amine hydrochloride]	< 25
COc1cccc2c1C(N)=NC1(CCN(C(=O)c3ccc(C#N)cc3)CC1)N2 [Example 170, 1-(4-Cyanobenzoyl)-5'-methoxyspiro[piperidine-4,2'(1'H)-quinazoline]-4'-amine hydrochloride]	< 25
C#CCCCCOC(=O)N1CCC2(CC1)N=C(N)c1c(F)cccc1N2 [Example 204, Hex-5-yn-1-yl 4'-amino-5'-fluorospiro[piperidine-4,2'(1'H)-qiuinazoline]-1-carboxylate hydrochloride]	< 25
NC1=NC2(CCN(C(=O)c3cnc(-c4sccc4Br)s3)CC2)Nc2cccc(F)c21 [Example 138, 1-(2-(3-Bromo-2-thienyl)-5-thiazolylcarbonyl)-5'-fluorospiro[piperidine-4,2'(1H) -quinazoline]-4'-amine hydrochloride]	< 25
NC1=NC2(CCN(C(=O)OCCCCCCl)CC2)Nc2cccc(F)c21 [Example 209, 5-Chloropentyl 4'-amino-5'-fluorospiro[piperidine-4,2'(1'H)-quinazoline]-1-carboxylate hydrochloride]	< 25
NC1=NC(c2ccco2)Nc2ccccc21 (stereo not shown) [Example 11, 2-(2-Furyl)-1,2-dihydro-4-quinazolinamine hydrochloride]	< 25
NC1=NC2(CCN(C(=O)c3cccnc3)CC2)Nc2cccc(F)c21 [Example 142, 5'-Fluoro-1-(3-pyridylcarbonyl)spiro[piperidine-4,2'(1'H)-quinazoline]-4'-amine hydrochloride]	< 25
NC1=NC2(CCN(C(=O)c3cccs3)CC2)Nc2cc(F)cc(F)c21 [Example 169, 5',7'-Difluoro-1-(2-thienylcarbonyl)spiro[piperidine-4,2'(1'H)-quinazoline]-4'-amine hydrochloride]	< 25
NC1=NC2(CCN(C(=O)c3nccs3)CC2)Nc2cccc(F)c21 [Example 136, 5'-Fluoro-1-(2-thiazolylcarbonyl)spiro[piperidine-4,2'(1'H)-quinazoline]-4'-amine hydrochloride]	< 25
NC1=NC(c2ccccc2C(F)(F)F)Nc2cccc(F)c21 (stereo not shown) [Example 40, 5-Fluoro-1,2-dihydro-2-(2-(trifluoromethyl)phenyl)-4-quinazolinamine hydrochloride]	< 25
NC1=NC2(CCN(C(=O)OCCOc3ccc(Cl)cc3)CC2)Nc2cccc(F)c21 [Example 224, 2-(4-Chlorophenoxy)ethyl 4'-amino-5'-fluorospiro[piperidine-4,2'(1'H)-quinazoline]-1-carboxylate hydrochloride]	< 25
NC1=NC2(CCN(C(=O)c3ccncc3)CC2)Nc2cccc(F)c21 [Example 141, 5'-Fluoro-1-(4-pyridylcarbonyl)spiro[piperidine-4,2'(1'H)-quinazoline]-4'-amine hydrochloride]	< 25

SMILES	IC50 [µM]
NC1=NC(c2ccncc2)Nc2ccccc21 (stereo not shown) [Example 13, 1,2-Dihydro-2-(4-pyridyl)-4-quinazolinamine hydrochloride]	< 25
NC1=NC2(CCN(C(=O)c3ccc(I)cc3)CC2)Nc2cccc(F)c21 [Example 106, 5'-Fluoro-1-(4-iodobenzoyl)spiro[piperidine-4,2'(1'H)-quinazoline]-4'-aminehydrochloride]	< 25
NC1=NC2(CCN(C(=O)CCCOc3ccccc3)CC2)Nc2cccc(F)c21 [Example 157, 5'-Fluoro-1-(4-phenoxybutanoyl)spiro[piperidine-4,2'(1'H)-quinazoline]-4'-amine hydrochloride]	< 25
NC1=NC2(CCN(C(=O)c3ccc(OC(F)(F)F)cc3)CC2)Nc2cccc(F)c21 [Example 114, 5'-Fluoro-1-(4-(trifluoromethoxy)benzoyl)spiro[piperidine-4,2'(1'H)-quinazoline]-4'-amine hydrochloride]	< 25
NC(=O)N1CCC2(CC1)N=C(N)c1ccccc1N2 [Example 92, 4'-Aminospiro[piperidine-4,2'(1'H)-quinazoline]-1-carboxamide hydrochloride]	< 25
NC1=NC2(CCN(C(=O)c3ccc(Br)cc3)CC2)Nc2cccc(F)c21 [Example 105, 1-(4-Bromobenzoyl)-5'-fluorospiro[piperidine-4,2'(1'H)-quinazoline]-4'-amine hydrochloride]	< 25
NC1=NC2(CCN(C(=O)c3ccco3)CC2)Nc2cccc(Cl)c21 [Example 101, 5'-Chloro-1-(2-furylcarbonyl)spiro[piperidine-4,2'(1'H)-quinazoline]-4'-amine hydrochloride]	< 25
N#Cc1ccc(C(=O)N2CCC3(CC2)N=C(N)c2c(F)ccc(F)c2N3)cc1 [Example 162, 1-(4-Cyanobenzoyl)-5',8'-difluorospiro[piperidine-4,2'(1'H)-quinazoline]-4'-amine hydrochloride]	< 25
NC1=NC2(CCN(C(=O)c3ccc(Br)o3)CC2)Nc2ccccc21 [Example 82, 1-(5-Bromo-2-furylcarbonyl)spiro[piperidine-4,2'(1'H)-quinazoline]-4'-aminehydrochloride]	< 25
NC1=NC2(CN(C(=O)OCc3ccccc3)C2)Nc2cccc(F)c21 [Example 249, Phenvlmethyl 4'-Amino-5'-fluorospiro[azetidine-3,2'(1'H)-quinazoline]-1-carboxylate]	< 25
CCOC(=O)N1CCC2(CC1)N=C(N)c1c(F)ccc(Cl)c1N2 [Example 185, Ethyl 4'-amino-8'-chloro-5'-fluorospiro[piperidine-4,2'(1'H)-quinazoline]-1-carboxylate]	< 25
CCOC(=O)N1CCC2(CC1)N=C(N)c1ccccc1N2 [Example 173, Ethyl 4'-aminospiro[piperidine-4,2'(1'H)-quinazoline]1-carboxylate hydrochloride]	< 25
NC1=NC2(CCN(C(=O)c3ccc4c(c3)C(=O)NC4=O)CC2)Nc2cccc(F)c21 [Example 152, 1-(1,3-Dihydro-1,3-dioxo-2H-isoindol-5-ylcarbonyl)-5'-fluorospiro[piperidine-4,2'(1'H)-quinazoline]-4'-amine hydrochloride]	< 25
NC1=NC2(CCN(C(=O)c3ccc4c(c3)no[n+]4[O-])CC2)Nc2cccc(F)c21 [Example 151, 1-(5-Benzofuroxanylcarbonyl)-5'-fluorospiro[piperidine-4,2'(1'H)-quinazoline]-4'-amine hydrochloride]	< 25
NC1=NC2(CCN(C(=O)c3ccccc3)CC2)Nc2cccc(F)c21 [Example 180, 1-Benzoyl-5'-fluorospiro[piperidine-4,2'(1'H)-quinazoline]-4'-amine hydrochloride]	< 25
NC1=NC2(CCN(C(=O)c3ccccc3F)CC2)Nc2cccc(F)c21 [Example 103, 5'-Fluoro-1-(2-fluorobenzoyl)spiro[piperidine-4,2'(1'H)-quinazoline]-4'-amine hydrochloride]	< 25
N#Cc1ccc(C(=O)N2CCC3(CC2)N=C(N)c2c(F)cccc2N3)cc1F [Example 122, 1-(4-Cyano-3-fluorobenzoyl)-5'-fluorospiro[piperidine-4,2'(1'H)-quinazoline]-4'-amine hydrochloride]	< 25
CCOC(=O)N1CCC2(CC1)N=C(N)c1c(F)ccc(F)c1N2 [Example 183, Ethyl 4'-amino-5'.8'-difluorospiro[piperidine-4,2'(1'H)-quinazoline]-1-carboxylate hydrochloride]	< 25
NC1=NC2(CCN(C(=O)c3ccc(S(N)(=O)=O)cc3)CC2)Nc2ccccc21 [Example 86, 1-(4-(Aminosulphonyl)benzoyl)spiro[piperidine-4,2'(1'H)-quinazoline]-4-amine hydrochloride]	< 25
NCCC1N=C(N)c2ccccc2N1 (stereo not shown) [Example 49, 4-Amino-1,2-dihydro-2-quinazolineethanamine hydrochloride]	< 25
